Measured values from patent publication US4428938A, “Peptides affecting the immune regulation and a process for their preparation” (Richter Gedeon Vegyeszeti Gyar Rt., priority 1981, dated 1984).
At least one peptide structure holds a part that was inferred or is arguable (an end, a ring closure or a residue).

What was measured:
[1] = tested on: lymphocytes of patients suffering from rheumatoid arthritis; assay: Active E-rosette test, lymphocytes of rheumatoid arthritis patients; format: cell-based, human; details: for E-rosette forming activity, percentage amount of active lymphocytes: n = 4
Procedure: (§1) The active E-rosette test was carried out according to a modified method of Wybran et al [Wybran et al: New Engl. J. Med. 292, 475 (1975)] by the lymphocites of healthy and autoimmune patients (rheumatoid arthritis and systemic lupus erythematosus). To 50 μl of a lymphocyte cell suspension 10^-3 -10^-11 moles/lit. solutions of the test material were added and the mixture was incubated in an atmosphere containing 5.0% of carbon dioxide, at 37° C. for 60 minutes. Thereafter 50 μlit. of a 1% sheep erythrocite suspension were added and the mixture was centrifuged at 1000 r.p.m. for 10 minutes followed by shaking with a modified Gallenkampf-shaker (shaking time: 30 sec, stroke: 8 cm, shaking frequency: 65/min.). The rosettes were fixed with a 0.1% glutaric aldehyde (50 μlit. for each tube, 3 min.). Lymphocytes bonding more than three sheep erythrocite were counted under a microscope and 4×100 cells were evaluated. The separated lymphocytes contain macrophages and polymorphonuclear cells (up to 10%) as an impurity. The number of the cells forming the rosettes was corrected by this value each case.

[2] = tested on: lymphocytes of healthy persons; assay: Active E-rosette test, lymphocytes of healthy persons; format: cell-based, human; details: n = 4
Procedure: as §1

Which “E-rosette forming activity, percentage amount of active lymphocytes” value ([1]; 10^-3 moles/liter) does the source give for `CC(C)[C@@H](C(=O)O)N1C(=O)C[C@H](NC(=O)[C@H](CCCCN)NC(=O)[C@@H](N)CCCNC(=N)N)C1=O` [Arg--Lys--Asu--Val, Arg-Lys-Asu-Val] here?
Its value is 23.6%.

And the “E-rosette forming activity, percentage amount of active lymphocytes” value ([1]; 10^-5 moles/liter)?
The value was 22.5%.

And the “E-rosette forming activity, percentage amount of active lymphocytes” value ([1]; 10^-7 moles/liter)?
The value was 24.3%.

What about the “Effect on E-rosette forming activity (in words)” value ([1]; 10^-9 moles/lit.) of the same molecule?
Its value is “significantly stimulated”.

What about the “E-rosette forming activity, percentage amount of active lymphocytes” value ([1]; 10^-9 moles/liter) of the same molecule?
The value was 28.6%.

What about the “E-rosette forming activity, percentage amount of active lymphocytes” value ([1]; 10^-11 moles/liter) of the same molecule?
Its value is 25.0%.

And the “E-rosette forming activity, percentage amount of active lymphocytes” value ([2]; 10^-3 moles/liter)?
Its value is 29.3%.

And the “E-rosette forming activity, percentage amount of active lymphocytes” value ([2]; 10^-5 moles/liter)?
Its value is 29.7%.

What about the “E-rosette forming activity, percentage amount of active lymphocytes” value ([2]; 10^-7 moles/liter) of the same molecule?
Its value is 29.0%.

And the “E-rosette forming activity, percentage amount of active lymphocytes” value ([2]; 10^-9 moles/liter)?
Its value is 32.3%.

And the “E-rosette forming activity, percentage amount of active lymphocytes” value ([2]; 10^-11 moles/liter)?
The value was 31.5%.
